Structures were worked out from names or drawings and are uncertain.
Target: FPRL-1 (Homo sapiens, UniProt P25090)
Assay: compound-induced calcium activity on FLIPR Tetra in CHO-Gα16 cells stably expressing FPRL1
Type: cell-based
Conditions: relative efficacy

The chains behind the UniProt entries cited, without tags or fusion partners.
UniProt P25090, whole entry: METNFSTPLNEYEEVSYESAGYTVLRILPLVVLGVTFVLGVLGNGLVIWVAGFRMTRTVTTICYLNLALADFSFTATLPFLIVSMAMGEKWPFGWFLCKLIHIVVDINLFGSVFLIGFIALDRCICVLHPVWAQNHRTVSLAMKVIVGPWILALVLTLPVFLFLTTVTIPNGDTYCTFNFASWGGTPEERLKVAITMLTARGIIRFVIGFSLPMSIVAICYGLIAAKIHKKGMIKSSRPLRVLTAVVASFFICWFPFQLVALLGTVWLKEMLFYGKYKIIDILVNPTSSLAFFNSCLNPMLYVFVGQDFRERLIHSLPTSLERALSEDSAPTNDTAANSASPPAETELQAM

FPRL-1 Ga16-CHO (Rel. eff.): (0.95)
Compound: CC(C)C[C@H](NC(=O)Nc1ccc(Br)cc1F)C(=O)NCC(N)=O
